# Primary screen of a compound library

By UniProt entry, the sequences of proteins in these tests, tags left out. Residues count along the entry.
UniProt P9WNZ1, whole entry: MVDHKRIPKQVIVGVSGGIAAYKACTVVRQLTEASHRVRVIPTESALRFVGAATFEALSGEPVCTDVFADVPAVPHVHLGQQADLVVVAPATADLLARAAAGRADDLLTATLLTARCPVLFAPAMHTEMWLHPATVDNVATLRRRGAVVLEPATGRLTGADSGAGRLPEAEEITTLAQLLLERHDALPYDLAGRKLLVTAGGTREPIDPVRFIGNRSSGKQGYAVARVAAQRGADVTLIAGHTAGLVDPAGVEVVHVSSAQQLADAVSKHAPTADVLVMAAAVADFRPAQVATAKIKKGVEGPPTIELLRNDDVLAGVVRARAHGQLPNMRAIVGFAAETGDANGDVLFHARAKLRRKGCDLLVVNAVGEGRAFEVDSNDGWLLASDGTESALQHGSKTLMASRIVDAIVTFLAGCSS
UniProt I6X8D2, whole entry: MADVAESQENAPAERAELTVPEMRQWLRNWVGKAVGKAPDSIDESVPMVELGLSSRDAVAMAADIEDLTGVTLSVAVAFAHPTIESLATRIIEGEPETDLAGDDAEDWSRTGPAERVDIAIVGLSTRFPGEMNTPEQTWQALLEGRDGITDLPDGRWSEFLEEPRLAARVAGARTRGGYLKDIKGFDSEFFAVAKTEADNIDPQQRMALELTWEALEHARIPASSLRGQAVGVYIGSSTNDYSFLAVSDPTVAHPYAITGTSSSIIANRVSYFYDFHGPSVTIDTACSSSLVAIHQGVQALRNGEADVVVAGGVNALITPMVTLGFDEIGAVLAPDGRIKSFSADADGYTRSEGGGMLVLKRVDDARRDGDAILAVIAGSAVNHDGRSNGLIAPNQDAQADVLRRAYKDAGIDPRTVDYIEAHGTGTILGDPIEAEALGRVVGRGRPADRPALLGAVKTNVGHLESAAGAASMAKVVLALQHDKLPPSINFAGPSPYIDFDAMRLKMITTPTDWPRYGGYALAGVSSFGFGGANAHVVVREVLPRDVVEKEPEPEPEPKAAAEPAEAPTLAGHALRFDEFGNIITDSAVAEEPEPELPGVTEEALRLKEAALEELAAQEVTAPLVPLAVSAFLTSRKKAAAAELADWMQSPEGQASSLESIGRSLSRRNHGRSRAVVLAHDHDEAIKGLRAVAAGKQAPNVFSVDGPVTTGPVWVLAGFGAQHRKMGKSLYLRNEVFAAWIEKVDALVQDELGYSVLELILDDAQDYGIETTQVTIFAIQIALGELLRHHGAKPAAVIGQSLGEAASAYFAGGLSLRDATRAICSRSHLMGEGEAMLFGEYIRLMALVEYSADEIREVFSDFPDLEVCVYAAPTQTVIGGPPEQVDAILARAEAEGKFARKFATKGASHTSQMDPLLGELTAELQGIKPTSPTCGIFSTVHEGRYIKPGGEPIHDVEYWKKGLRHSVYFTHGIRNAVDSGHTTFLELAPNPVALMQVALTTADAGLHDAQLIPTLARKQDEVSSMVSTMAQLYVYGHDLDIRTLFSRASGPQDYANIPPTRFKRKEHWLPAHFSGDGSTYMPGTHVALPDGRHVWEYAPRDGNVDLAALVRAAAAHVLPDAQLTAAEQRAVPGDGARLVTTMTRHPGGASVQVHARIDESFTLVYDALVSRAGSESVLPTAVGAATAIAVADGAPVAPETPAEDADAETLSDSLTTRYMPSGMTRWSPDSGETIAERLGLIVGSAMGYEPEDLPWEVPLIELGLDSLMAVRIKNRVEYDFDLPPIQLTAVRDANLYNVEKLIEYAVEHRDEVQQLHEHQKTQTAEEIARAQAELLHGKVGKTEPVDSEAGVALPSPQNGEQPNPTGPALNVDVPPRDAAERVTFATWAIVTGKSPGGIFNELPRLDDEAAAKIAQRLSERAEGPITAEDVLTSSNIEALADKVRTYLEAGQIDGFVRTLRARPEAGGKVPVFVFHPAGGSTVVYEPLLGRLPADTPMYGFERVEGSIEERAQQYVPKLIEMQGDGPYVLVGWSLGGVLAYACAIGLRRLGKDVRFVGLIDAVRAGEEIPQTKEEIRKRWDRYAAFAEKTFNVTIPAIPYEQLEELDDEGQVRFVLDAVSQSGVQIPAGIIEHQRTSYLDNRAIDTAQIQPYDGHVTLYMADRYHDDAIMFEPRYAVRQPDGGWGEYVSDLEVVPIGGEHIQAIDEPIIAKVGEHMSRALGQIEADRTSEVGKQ
UniProt P9WPC5, whole entry: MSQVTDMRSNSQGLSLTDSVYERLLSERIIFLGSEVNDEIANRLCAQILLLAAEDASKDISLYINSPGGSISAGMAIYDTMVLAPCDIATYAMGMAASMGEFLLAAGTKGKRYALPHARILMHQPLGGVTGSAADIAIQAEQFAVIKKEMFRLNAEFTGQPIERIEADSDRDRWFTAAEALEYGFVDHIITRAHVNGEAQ
UniProt P9WPC3, whole entry partner: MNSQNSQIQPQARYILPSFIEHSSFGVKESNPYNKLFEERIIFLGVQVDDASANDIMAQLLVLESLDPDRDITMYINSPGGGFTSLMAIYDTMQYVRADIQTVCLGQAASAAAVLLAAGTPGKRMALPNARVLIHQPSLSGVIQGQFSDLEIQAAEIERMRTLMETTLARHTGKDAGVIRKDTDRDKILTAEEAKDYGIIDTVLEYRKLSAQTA
UniProt A4I591, 1-473: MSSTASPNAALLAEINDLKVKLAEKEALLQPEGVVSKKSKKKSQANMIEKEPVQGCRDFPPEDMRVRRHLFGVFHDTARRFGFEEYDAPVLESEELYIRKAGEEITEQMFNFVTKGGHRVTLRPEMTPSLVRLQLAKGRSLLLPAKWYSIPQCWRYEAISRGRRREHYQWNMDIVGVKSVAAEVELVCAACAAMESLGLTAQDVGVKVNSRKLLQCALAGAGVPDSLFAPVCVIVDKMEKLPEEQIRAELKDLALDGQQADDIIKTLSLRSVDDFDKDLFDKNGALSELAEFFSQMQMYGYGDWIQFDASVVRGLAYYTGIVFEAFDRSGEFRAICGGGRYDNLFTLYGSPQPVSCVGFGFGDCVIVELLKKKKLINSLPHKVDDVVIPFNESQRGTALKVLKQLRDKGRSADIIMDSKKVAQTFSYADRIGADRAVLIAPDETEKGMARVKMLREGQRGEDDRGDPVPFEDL
UniProt P9WFT3, whole entry: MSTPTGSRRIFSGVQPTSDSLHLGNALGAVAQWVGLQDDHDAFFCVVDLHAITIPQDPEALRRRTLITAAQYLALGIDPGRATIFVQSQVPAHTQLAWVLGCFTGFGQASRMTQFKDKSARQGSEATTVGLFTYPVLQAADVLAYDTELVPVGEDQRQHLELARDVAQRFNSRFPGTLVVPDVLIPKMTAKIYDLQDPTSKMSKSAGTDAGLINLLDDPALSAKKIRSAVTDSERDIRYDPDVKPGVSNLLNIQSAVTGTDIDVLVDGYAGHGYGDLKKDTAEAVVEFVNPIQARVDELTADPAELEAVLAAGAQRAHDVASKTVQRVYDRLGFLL

Values are the deposited “Percent Effect”, in %.
The record does not define 0% and 100%; most values in the screen are far below 50% and negative numbers occur (in some assays of this library far below -100).
Compounds were drawn at random from those tested, without regard to their results.
A dash means the value is not listed here; it may have been measured.

CoaBC: 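Enzyme assay of CoaBC with a phosphate dye (Biomol Green) read at 650 nm. Target: Coenzyme A biosynthesis protein CoaBC, Mycobacterium tuberculosis (UniProt P9WNZ1). Tested at 30 µM. Higher reads as stronger inhibition, judged from the few compounds that gave an IC50. Most strong results did not repeat in a second test. Size under these conditions: about 67,000 compounds, about 40 of them at 50% or above in at least one test.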
Pks13 thioesterase: 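Polyketide synthase Pks13, Mycobacterium tuberculosis (UniProt I6X8D2). Enzyme assay of the thioesterase domain of polyketide synthase 13; the read-out is not stated. Compounds at 30 µM. The record gives no direction; the compounds picked for IC50 retests had high values, so higher reads as stronger inhibition. Size under these conditions: about 67,000 compounds, about 300 of them at 50% or above in at least one test.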
ClpP1P2: 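ClpP1P2, Mycobacterium tuberculosis (UniProt P9WPC5 and UniProt P9WPC3). Protease assay of ClpP1P2, read by the AMC dye that it sets free. Compounds at 50 µM. Direction is inferred from only a few compounds that gave an IC50; most scored high, so higher reads as stronger inhibition. Most other retested compounds had strongly negative values. About 69,000 compounds were tested under these conditions; 0.015% (about 10) showed 50% or more at least once.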
Toxoplasma: 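Assay of Toxoplasma gondii numbers, read through their beta-galactosidase reporter with a colour substrate. Concentration: 10 µM. The record gives no direction; the compounds picked for IC50 retests had high values, so higher reads as fewer parasites. About 67,000 compounds were tested under these conditions; 0.38% (about 260) showed 50% or more at least once.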
LiHisRS: 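Histidine-tRNA ligase, Leishmania infantum (UniProt A4I591). Enzyme assay of histidyl-tRNA synthetase; the read-out is not stated. Compounds at 30 µM. The record gives no direction; compounds that gave an IC50 in retests scored well above the rest, so higher reads as stronger inhibition. The assay is labelled LdHisRS but filed under L. infantum. About 69,000 compounds were tested under these conditions; 0.6% (about 410) showed 50% or more at least once.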
MtTrpRS: 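Tryptophan-tRNA ligase, Mycobacterium tuberculosis (UniProt P9WFT3). Enzyme assay of tryptophanyl-tRNA synthetase; the read-out is not stated. Compounds at 10 µM. Direction is not recorded; retested compounds ran higher, which suggests that high means inhibition. About 65,000 compounds were tested under these conditions; 0.098% (about 64) showed 50% or more at least once.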

structure	CoaBC	Pks13 thioesterase	ClpP1P2	Toxoplasma	LiHisRS	MtTrpRS
CC(=O)N1CC[C@H]2N(C)CC[C@@]2(C(=O)Nc2cccnc2)CC1	3.96	-11.59	-0.1446	-	9.91	-
COc1ccc2c(c1)C(=O)N(C)C1(CCN(CC3CC3)CC1)N2	-1.463	-12.97	-112.2	0.947	-276.5	-5.683
c1cnc(N2CCC3(CCN(CC4CCCC4)CC3)C2)nc1	-5.732	5.146	1.261	-	0.885	-0.5863
CC(C)CN1CCC2(C=C(C(=O)N(C)C)c3ccccc32)CC1	-1.238	-5.174	6.174	-	15.32	-
COC(=O)CC1C(=O)NCCN1c1nc2c(s1)c(C)nn2C (centres undefined)	-6.112	-6.174	10.23	16.79	19.18	0.2981
COCC(=O)N1CCC2(CCN(Cc3cccnc3)C2)CC1	0.9009	-16.24	-1.387	-	32.69	-6.395
COCC1c2c(cnn2CC2CC2)CCN1Cc1nccs1 (centres undefined)	0.8883	-3.187	7.788	-	20.75	0.7345
Cc1occc1C(=O)Nc1cc(N2CCNC2=O)ccc1Cl	11.74	0.9568	-5.699	3.184	14.14	0.867
CC(C)NC(=O)[C@H]1C[C@@H]2[C@@H](C1)OCCN2Cc1ccsc1	-1.935	-29.22	-5.48	-	25	-3.067
Cn1cnnc1S(=O)(=O)C1CCN(C(=O)c2ccco2)CC1	-8.824	26.96	-0.774	-6.62	-5.983	-1.887
CN1CCS(=O)(=O)[C@@H]2CCN(C(=O)CC(C)(C)C)CC[C@@H]21	1.647	-25.99	21.68	-	-2.752	-2.985
O=C(NCCc1nncn1C1CC1)C1(Cc2ccccc2)CCC1	-1.138	-4.947	-7.074	-0.1894	2.521	-7.149
Clc1ccccc1C1CN(CCc2ccncc2)CCO1 (centres undefined)	0.7229	-9.609	4.783	8.01	5.495	-5.502
Cc1cc(C(=O)N2CC[C@@H]3CO[C@@H](CN4CCCC4)[C@@H]3C2)no1	-9.98	-24.67	-1.347	-	-2.632	0
COCCN1CC[C@@H]2OC[C@H](C(=O)NCc3cccs3)C[C@@H]2C1	1.028	-27.46	10.04	-	10.53	-0.6103
CC(C)c1nnc(NC(=O)CSCc2cc(=O)n3ccccc3n2)s1	-0.1318	-12.4	-3.57	-16.21	6.849	-4.75
Cc1noc(Cl)c1CC(=O)N1CCCC1Cn1cccn1 (centres undefined)	3.553	-28.56	-13.41	20.07	24.71	0.9684
O=C(O)C(F)(F)F.O=C(O)C(F)(F)F.[H][C@@]12COC[C@H](C(=O)NCc3ccco3)[C@]1([H])CN(Cc1ccccn1)C2	-	-	-	-53.1	-	-
[H][C@@]12CCCCN(C)[C@]1([H])[C@@H](c1ccccc1)CCN2C(=O)c1ccccc1	-	-	-	8.392	-	-
CC(C)c1nn(C)c(Cl)c1CNCc1ccc2c(c1)OCO2	1.434	-13.9	-4.831	-	7.895	-2.534
CCS(=O)(=O)N1Cc2nnn(C)c2C(COCCN(C)C)C1.O=C(O)C(F)(F)F (centres undefined)	-	-	-	22.8	-	-
Cn1ccc(C(=O)N2C[C@@H]3CCN(c4cccnc4)C[C@@H]3C2)n1	-5.419	-3.669	11.03	-	18	-6.623
COc1ccc(F)c(-c2ccnc(N)c2)c1	0.6711	-14.37	-1.194	0.1267	17.24	-0.2447
CCNC(=O)N1CCc2ccc(NC(=O)NCCOCC)cc21	-5.725	5.775	-9.178	2.116	24.39	0.7424
COc1ccc(CN2CCC3(CC(=O)N(c4cccc(F)c4)C3)C2)cc1.O=C(O)C(F)(F)F (centres undefined)	-	-	-	-0.6972	-	-
CC(C)CN1CCC2(C1)CN(S(=O)(=O)c1cn(C)cn1)C2.O=C(O)C(F)(F)F.O=C(O)C(F)(F)F	-	-	-	-2.24	-	-
Cn1cc(C2CCCN2C(=O)CCCOc2ccccc2F)cn1 (centres undefined)	5.612	-2.593	-9.821	0.7339	3.636	-4.073
CCc1nc2n(n1)CC(NCC(=O)Nc1cc(C)on1)CC2 (centres undefined)	2.571	-37.5	-3.267	-	-7.865	2.596
CN(Cc1cccnc1)C1CC2(CCN(c3ccccn3)CC2)C1.O=C(O)C(F)(F)F.O=C(O)C(F)(F)F.O=C(O)C(F)(F)F	-	-	-	-0.721	-	-
O=C(Cc1ccccn1)NCC1OCCc2cn(CC3CC3)nc21 (centres undefined)	0.2105	-7.555	8.463	-	9.735	9.96

2 of the entries, repeated:

| structure | CoaBC | Pks13 thioesterase | ClpP1P2 | Toxoplasma | LiHisRS | MtTrpRS |
|---|---|---|---|---|---|---|
| `COCC(=O)N1CCC2(CCN(Cc3cccnc3)C2)CC1` | 0.9009 | -16.24 | -1.387 | - | 32.69 | -6.395 |
| `[H][C@@]12CCCCN(C)[C@]1([H])[C@@H](c1ccccc1)CCN2C(=O)c1ccccc1` | - | - | - | 8.392 | - | - |

From ChEMBL document CHEMBL3988442, “University of Dundee, Small-Polar-MMV Screening Library” (2021).